Data as given in PubChem BioAssay AID504793 (Drosophila RNAi Screening Center, 2011).
In all, the deposit lists about 23,000 reagents; below is an unselected part of those that have a named target and a result. In the full data, 62 (0.27%) got an active call. 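Calls come from follow-up tests whose scores are not deposited, so confirmed genes may have low counts here; counts are not normalised per plate.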 The raw values are shown without normalisation. The numbers tell different reagents against one gene apart.

Test: 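Genes required for cells to halt at G2/M after double-strand DNA breaks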 (primary screen)
System: Drosophila S2R+ cells
Reagent: long dsRNA against Drosophila genes, about 0.25 µg dsRNA per well
Time to read-out: 4 days of dsRNA, then 4 hours of drug before read-out
Conditions: doxorubicin 0.5 µM for 4 hours to cause double-strand breaks, in cells also given a low, harmless dose of dsRNA against nbs to sensitise the assay
Detection: 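Mitotic index as the number of phospho-histone H3-positive cells in each well following doxorubicin, given as raw counts without normalisation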
Direction: mitotic cells: higher = more cells in mitosis, weaker G2 arrest
Hit rule: 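Genes are called active only when high mitotic counts were reproduced with independent dsRNAs and mitosis was checked for delay without damage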
Meaning of the calls: active = confirmed in follow-up tests; inactive = not confirmed

{"target gene": "CG17108", "reagent": 1, "mitotic cells, replicate 1": 6, "Outcome": "inactive"}
{"target gene": "CG17108", "reagent": 2, "mitotic cells, replicate 1": 9, "Outcome": "inactive"}
{"target gene": "CG17108", "reagent": 3, "mitotic cells, replicate 1": 2, "Outcome": "inactive"}
{"target gene": "CG31189", "reagent": 1, "mitotic cells, replicate 1": 8, "Outcome": "inactive"}
{"target gene": "CG12017", "reagent": 1, "mitotic cells, replicate 1": 4, "Outcome": "inactive"}
{"target gene": "CG12017", "reagent": 2, "mitotic cells, replicate 1": 3, "Outcome": "inactive"}
{"target gene": "CG12231", "reagent": 1, "mitotic cells, replicate 1": 7, "Outcome": "inactive"}
{"target gene": "Yp2 (Yolk protein 2)", "reagent": 1, "mitotic cells, replicate 1": 8, "Outcome": "inactive"}
{"target gene": "Yp2 (Yolk protein 2)", "reagent": 2, "mitotic cells, replicate 1": 2, "Outcome": "inactive"}
{"target gene": "Lip4 (Lipase 4)", "reagent": 1, "mitotic cells, replicate 1": 2, "Outcome": "inactive"}
{"target gene": "CG4702", "reagent": 1, "mitotic cells, replicate 1": 6, "Outcome": "inactive"}
{"target gene": "Bub1 (Bub1 kinase)", "reagent": 1, "mitotic cells, replicate 1": 13, "Outcome": "inactive"}
{"target gene": "Bub1 (Bub1 kinase)", "reagent": 2, "mitotic cells, replicate 1": 2, "Outcome": "inactive"}
{"target gene": "Dtd (D-aminoacyl-tRNA deacylase)", "reagent": 1, "mitotic cells, replicate 1": 5, "Outcome": "inactive"}
{"target gene": "RhoGEF3 (Rho guanine nucleotide exchange factor 3)", "reagent": 1, "mitotic cells, replicate 1": 4, "Outcome": "inactive"}
{"target gene": "RhoGEF3 (Rho guanine nucleotide exchange factor 3)", "reagent": 2, "mitotic cells, replicate 1": 6, "Outcome": "inactive"}
{"target gene": "CG14200", "reagent": 1, "mitotic cells, replicate 1": 2, "Outcome": "inactive"}
{"target gene": "CG14200", "reagent": 2, "mitotic cells, replicate 1": 34, "Outcome": "inactive"}
{"target gene": "CG14200", "reagent": 3, "mitotic cells, replicate 1": 7, "Outcome": "inactive"}
{"target gene": "CG9360", "reagent": 1, "mitotic cells, replicate 1": 23, "Outcome": "inactive"}

As entered above:
For “mitotic cells, replicate 1”, CG9360 has 23
Dtd (D-aminoacyl-tRNA deacylase), mitotic cells, replicate 1 → 5
Under “mitotic cells, replicate 1”, RhoGEF3 (Rho guanine nucleotide exchange factor 3) #2 shows 6
CG4702, Outcome → inactive

Continued.
{"target gene": "CG12003", "reagent": 1, "mitotic cells, replicate 1": 9, "Outcome": "inactive"}
{"target gene": "Tbce (Tubulin-binding cofactor E)", "reagent": 1, "mitotic cells, replicate 1": 6, "Outcome": "inactive"}
{"target gene": "Burs (Bursicon)", "reagent": 1, "mitotic cells, replicate 1": 12, "Outcome": "inactive"}
{"target gene": "CG2533", "reagent": 1, "mitotic cells, replicate 1": 16, "Outcome": "inactive"}
{"target gene": "CG2533", "reagent": 2, "mitotic cells, replicate 1": 4, "Outcome": "inactive"}
{"target gene": "p-cup (presidents-cup)", "reagent": 1, "mitotic cells, replicate 1": 5, "Outcome": "inactive"}
{"target gene": "CG11617", "reagent": 1, "mitotic cells, replicate 1": 5, "Outcome": "inactive"}
{"target gene": "CG11617", "reagent": 2, "mitotic cells, replicate 1": 8, "Outcome": "inactive"}
{"target gene": "CG11617", "reagent": 3, "mitotic cells, replicate 1": 8, "Outcome": "inactive"}
{"target gene": "Rassf (Ras association family member)", "reagent": 1, "mitotic cells, replicate 1": 8, "Outcome": "inactive"}
{"target gene": "Rassf (Ras association family member)", "reagent": 2, "mitotic cells, replicate 1": 6, "Outcome": "inactive"}
{"target gene": "Dhx15 (DEAH-box helicase 15)", "reagent": 1, "mitotic cells, replicate 1": 10, "Outcome": "inactive"}
{"target gene": "Dhx15 (DEAH-box helicase 15)", "reagent": 2, "mitotic cells, replicate 1": 5, "Outcome": "inactive"}
{"target gene": "pav (pavarotti)", "reagent": 1, "mitotic cells, replicate 1": 63, "Outcome": "inactive"}
{"target gene": "pav (pavarotti)", "reagent": 2, "mitotic cells, replicate 1": 3, "Outcome": "inactive"}
